Common to all, as to conditions: 24 h
Assay [1] relates to Human fetal astrocytes. Nature of the assay: loss of total cells relative to no-compound high-control median (toxicity); higher = more toxic (fewer cells).
The test system of assay [2] is Human fetal astrocytes. Nature of the assay: synaptosome phagocytosis (pHrodo/calcein intensity ratio) relative to plate median of data wells; higher = more phagocytosis.
Assay [3] has as its system Human fetal astrocytes. Nature of the assay: loss of total cells relative to no-compound high-control median (toxicity); higher = more toxic (fewer cells). The source holds these as a separate data set.
Assay [4] deals with Human fetal astrocytes. Nature of the assay: synaptosome phagocytosis (pHrodo/calcein intensity ratio) relative to plate median of data wells; higher = more phagocytosis. This is another data set of the same source.

We go through 10 compounds from the supplement of paper PMC10689618.

The other results are listed elsewhere or left out. Many values rest on one well or one pass, so single values are uncertain.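 Primary human fetal astrocytes engulfed labelled rat cortical synaptosomes, measured as a red/green ratio corrected for calcein live-cell signal and scaled to the plate median. Toxicity meant calcein falling over 30%; decreased phagocytosis meant below 70% of median above 5 µM.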

`CO[C@@]12[C@H](COC(N)=O)C3=C(C(=O)C(C)=C(N)C3=O)N1C[C@@H]1N[C@@H]12`: the “loss of total cells” value is -29% in the assay with Human fetal astrocytes [1] (1.39 µM); 8.8% in the assay with Human fetal astrocytes [1] (2.78 µM); 0.3% with Human fetal astrocytes [1] (5.56 µM); -7.8% in the assay on Human fetal astrocytes [1] (11.11 µM); 6.8% with Human fetal astrocytes [1] (22.22 µM). Moreover, the synaptosome phagocytosis is 103% in the assay with Human fetal astrocytes [2] (1.39 µM); 94.4% in the assay with Human fetal astrocytes [2] (2.78 µM); 104% with Human fetal astrocytes [2] (5.56 µM); 107% in the assay with Human fetal astrocytes [2] (11.11 µM); 85% in the assay with Human fetal astrocytes [2] (22.22 µM).

Consider `OCC(O)CN1CCN(c2ccccc2)CC1` (stereo not given), for which the “loss of total cells” value was 6.1% in the assay on Human fetal astrocytes [1] (1.39 µM); 12.6% with Human fetal astrocytes [1] (2.78 µM); 15.9% in the assay on Human fetal astrocytes [1] (5.56 µM); -11.3% in the assay with Human fetal astrocytes [1] (11.11 µM); 4.5% in the assay with Human fetal astrocytes [1] (22.22 µM). Besides, the synaptosome phagocytosis with Human fetal astrocytes [2] (1.39 µM) was 91.1%; in the assay on Human fetal astrocytes [2] (2.78 µM), 107%; with Human fetal astrocytes [2] (5.56 µM) it was 105%; in the assay on Human fetal astrocytes [2] (11.11 µM), 85.4%; in the assay on Human fetal astrocytes [2] (22.22 µM), 99.4%.

Turning to `Cc1cc(=O)oc2cc(O)cc(O)c12`, the “loss of total cells” value was -20.5% in the assay on Human fetal astrocytes [1] (1.39 µM); -11.2% in the assay with Human fetal astrocytes [1] (2.78 µM); 2.2% with Human fetal astrocytes [1] (5.56 µM); -3.4% with Human fetal astrocytes [1] (11.11 µM); -8.9% in the assay with Human fetal astrocytes [1] (22.22 µM). Moreover, the synaptosome phagocytosis in the assay with Human fetal astrocytes [2] (1.39 µM) is 99.5%; in the assay on Human fetal astrocytes [2] (2.78 µM), 82.3%; in the assay with Human fetal astrocytes [2] (5.56 µM), 91.3%; in the assay with Human fetal astrocytes [2] (11.11 µM), 137%; with Human fetal astrocytes [2] (22.22 µM), 92.1%.

Take `CC(N/C(=N\C#N)Nc1ccncc1)C(C)(C)C` (stereo not given): the “loss of total cells” value with Human fetal astrocytes [1] (1.39 µM) is -15.8%; in the assay with Human fetal astrocytes [1] (2.78 µM) it was -22.9%; in the assay with Human fetal astrocytes [1] (5.56 µM), -6.3%; in the assay with Human fetal astrocytes [1] (11.11 µM), -18.8%; in the assay with Human fetal astrocytes [1] (22.22 µM), 4.5%. Moreover, the synaptosome phagocytosis was 117% in the assay on Human fetal astrocytes [2] (1.39 µM); 93.1% in the assay on Human fetal astrocytes [2] (2.78 µM); 99.3% with Human fetal astrocytes [2] (5.56 µM); 117% with Human fetal astrocytes [2] (11.11 µM); 84.6% in the assay with Human fetal astrocytes [2] (22.22 µM).

Regarding `COc1ccc(C(=O)c2ccccc2)c(O)c1`, the “loss of total cells” value in the assay on Human fetal astrocytes [1] (1.39 µM) is -0.8%; in the assay on Human fetal astrocytes [1] (2.78 µM), -4%; with Human fetal astrocytes [1] (5.56 µM) it was 2.7%; in the assay with Human fetal astrocytes [1] (11.11 µM), 8.6%; in the assay with Human fetal astrocytes [1] (22.22 µM), 12.5%. Also, the synaptosome phagocytosis with Human fetal astrocytes [2] (1.39 µM) is 83.2%; in the assay with Human fetal astrocytes [2] (2.78 µM) it was 112%; in the assay on Human fetal astrocytes [2] (5.56 µM), 94.7%; in the assay on Human fetal astrocytes [2] (11.11 µM), 88.8%; in the assay on Human fetal astrocytes [2] (22.22 µM) it was 78%.

Take `O=C([O-])c1ccccc1[O-].[Bi+3].[OH-]`: the “loss of total cells” value in the assay on Human fetal astrocytes [1] (1.39 µM) is 4.8%; with Human fetal astrocytes [1] (2.78 µM), -17.5%; in the assay with Human fetal astrocytes [1] (5.56 µM), 11.2%; in the assay on Human fetal astrocytes [1] (11.11 µM), 42.3%; in the assay on Human fetal astrocytes [1] (22.22 µM), 17.8%. Also, the synaptosome phagocytosis in the assay with Human fetal astrocytes [2] (1.39 µM) was 110%; with Human fetal astrocytes [2] (2.78 µM), 96.8%; with Human fetal astrocytes [2] (5.56 µM) it was 123%; in the assay with Human fetal astrocytes [2] (11.11 µM), 171%; in the assay with Human fetal astrocytes [2] (22.22 µM), 131%.

Regarding `Oc1ccc(Cl)c2cccnc12`, the “loss of total cells” value stood at 6.2% in the assay with Human fetal astrocytes [1] (1.39 µM); 17.3% in the assay on Human fetal astrocytes [1] (2.78 µM); 2.1% with Human fetal astrocytes [1] (5.56 µM); 37.8% with Human fetal astrocytes [1] (11.11 µM); 49.5% in the assay with Human fetal astrocytes [1] (22.22 µM). Besides, the synaptosome phagocytosis with Human fetal astrocytes [2] (1.39 µM) was 62.4%; in the assay with Human fetal astrocytes [2] (2.78 µM), 80.9%; in the assay on Human fetal astrocytes [2] (5.56 µM) it was 72.8%; in the assay with Human fetal astrocytes [2] (11.11 µM) it was 32.7%; in the assay on Human fetal astrocytes [2] (22.22 µM), 54.9%.

For `COc1cc(C)c2c(c1C=O)Oc1c(c(C)c(O)c3c1C(O)OC3=O)OC2=O` (stereo not given), the “loss of total cells” value with Human fetal astrocytes [1] (1.39 µM) was -10.5%; in the assay with Human fetal astrocytes [1] (2.78 µM) it was 7.3%; in the assay with Human fetal astrocytes [1] (5.56 µM), 27.5%; with Human fetal astrocytes [1] (11.11 µM), 29%; in the assay on Human fetal astrocytes [1] (22.22 µM), -4.8%. Further, the synaptosome phagocytosis in the assay with Human fetal astrocytes [2] (1.39 µM) was 107%; with Human fetal astrocytes [2] (2.78 µM), 97.8%; in the assay with Human fetal astrocytes [2] (5.56 µM), 109%; in the assay with Human fetal astrocytes [2] (11.11 µM), 114%; in the assay with Human fetal astrocytes [2] (22.22 µM) it was 118%.

Turning to `CC(=O)Nc1ccc(O)cc1`, the “loss of total cells” value was -20.7% in the assay with Human fetal astrocytes [1] (1.39 µM); -9.5% with Human fetal astrocytes [1] (2.78 µM); 0.3% in the assay with Human fetal astrocytes [1] (5.56 µM); -7% in the assay with Human fetal astrocytes [1] (11.11 µM); 12.5% in the assay on Human fetal astrocytes [1] (22.22 µM). Moreover, the synaptosome phagocytosis in the assay on Human fetal astrocytes [2] (1.39 µM) is 80.8%; with Human fetal astrocytes [2] (2.78 µM), 113%; in the assay on Human fetal astrocytes [2] (5.56 µM) it was 99.8%; in the assay on Human fetal astrocytes [2] (11.11 µM) it was 116%; in the assay with Human fetal astrocytes [2] (22.22 µM), 112%.

In the case of `CN1CCC[C@@H]1c1cccnc1.Cc1ccc(C(=O)O[C@H](C(=O)O)[C@@H](OC(=O)c2ccc(C)cc2)C(=O)O)cc1` [(+)-Nicotine (+)-di-p-toluoyl tartrate], the “loss of total cells” value in the assay on Human fetal astrocytes [3] (1.39 µM) is -15.6%; in the assay on Human fetal astrocytes [3] (2.78 µM), -4.1%; with Human fetal astrocytes [3] (5.56 µM) it was -6.1%; in the assay with Human fetal astrocytes [3] (11.11 µM), 1%; with Human fetal astrocytes [3] (22.22 µM) it was 4.7%. Besides, the synaptosome phagocytosis with Human fetal astrocytes [4] (1.39 µM) was 97%; in the assay with Human fetal astrocytes [4] (2.78 µM), 135%; in the assay with Human fetal astrocytes [4] (5.56 µM) it was 107%; in the assay with Human fetal astrocytes [4] (11.11 µM) it was 107%; with Human fetal astrocytes [4] (22.22 µM), 111%.
